From patent US20150306110A1, “COMPOSITIONS AND METHODS FOR TREATMENT OF INFLAMMATION AND HYPERKERATOTIC LESIONS” (Novelix Pharmaceuticals, Inc., priority 2008, published 2015)
For at least one compound, name, drawing or mass did not settle the structure.

How the values were obtained:
518A2 = assay: Cell growth/survival, 518A2 melanoma cells; format: cell-based, Human; conditions: betulinic acid at an almost 5-fold higher molar concentration
Description: Melanoma cell lines used in this study were maintained in Dulbecco's modified Eagle medium (DMEM with 4500 mg/l glucose) supplemented with 10% FCS from Gibco BRL (Life Technologies, Berlin, Germany). The canine mastocytoma cell line C2 (DeVinney et al, Am. J. Respir. Cell Mol. Biol. 3:413-20, 1990) was used in this study, along with additional human cell lines: RD-ES and TC-71 (human Ewing's sarcoma), SAOS2 (human osteosarcoma), HT-1080 (human fibrosarcoma), Caco-2 (human colon adenocarcinoma), A549 (human lung adenocarcinoma), Hep-G2 and Hep-3B (human hepatocellular carcinoma), SK-N-DZ and SK-N-FI (human embryonal neuroblastoma), HTB9 (human bladder cancer), MDA-468 and MCF-7 (human breast cancer) and SW872 liposarcoma. All breast cancer cells were routinely cultured in DMEM/F-12 or in DMEM alone supplemented with 10% FCS at 37° C. in a humidified 5% CO2 atmosphere. RD-ES and TC-71 sarcoma cell lines were maintained in RPMI 1640 (Biochrom KG, Berlin, Germany) containing 10% FCS at 37° C. in a humidified 5% CO2 atmosphere. […]
Briefly, cells were maintained in standard medium, harvested, and plated at equal densities (750,000 cells in 5 cm tissue culture dishes). […] For the assessment of cell growth, the number of surviving cells was determined using an automated cell counter from Beckman Coulter GmbH (Krefeld, Germany). […]

Mammary carcinoma = assay: Intra-tumoral NVX-207 in canine patient, mammary carcinoma; conditions: Patient #2, 12, F; 6 treatment cycles
[1] = tested on: Sweat gland adenocarcinoma; assay: Intra-tumoral NVX-207 in canine patient, sweat gland adenocarcinoma; conditions: Patient #3; 6 treatment cycles

C=C(C)[C@@H]1CC[C@]2(C(=O)O)CC[C@]3(C)[C@H](CC[C@@H]4[C@@]5(C)CC[C@H](O)C(C)(C)[C@@H]5CC[C@]43C)[C@@H]12 [betulinic acid, reference compound]
Extent of cell death compared with NVX-207 (time course, FIGS. 2A-B) (518A2): did not lead to the same extent of cell death

C=C(C)[C@@H]1CC[C@]2(C(=O)OCC(N)(CO)CO)CC[C@]3(C)[C@H](CC[C@@H]4[C@@]5(C)CC[C@H](OC(C)=O)C(C)(C)[C@@H]5CC[C@]43C)[C@@H]12 [NVX-207, 3-O-acetylbetulinic acid-2-amino-3-hydroxy-2-hydroxymethylpropyl ester]
Overall Survival (Mammary carcinoma): alive | Overall Survival [1]: alive
